Test results reported in PubChem BioAssay AID624291 (National Center for Advancing Translational Sciences (NCATS), 2012).
Hit rate of the full screen: of about 350,000 compounds, about 220 (0.063%) were called active. This list was built around the results that the source calls inconclusive (neither active nor inactive); the mix of calls is not that of the screen. Calls come from the whole dose curve; as a rule, active = well fitted activation curve with a large enough effect; inconclusive = small, poorly fitted or top-dose-only effect; inactive = no such curve, though single readings can be large or run the other way. Where the call is inconclusive, the potency comes from a doubtful curve fit.

Assay: qHTS for Activators of Integrin-Mediated Alleviation for Muscular Dystrophy; note: nearly all actives have a fitted effect of over 60% in size;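 for activation: 100% = response of the positive control SU9516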
Settings: alpha7betagal myoblasts, beta-gal FDG fluorescence, 48 h; activation: at 38.3 µM (top of the series)
Procedure, shortened: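 alpha7betagal+/- myoblasts (passage 13, 250/well) treated 48 h at 37C with compounds at 1:260 dilution of DMSO stock. Lysed, then beta-galactosidase activity read as FDG fluorescence (ex 480/em 540) after 30 min, with pre-read for autofluorescence.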
Potency is the fitted concentration of half-maximal effect.

Potency, active:
O=C(O)CCn1cc(/C=C2/NC(=S)N(c3ccccc3)C2=O)c(-c2ccccc2)n1 20 µM

Potency, inconclusive:
COc1ccc(C(=O)c2c(-c3ccc(OC)cc3)oc3ccccc23)cc1 2.82 µM [activator, full curve]
COc1ccc(S(=O)(=O)CC(=O)Nc2ccccc2Cl)cc1 31.6 µM [activator, single point]
Cc1ccccc1-c1nc(CS(=O)(=O)CC(=O)NC2CCCCC2C)c(C)o1 (stereo not drawn) 1 µM [activator, full curve, poor fit]
COc1ccccc1CC(NC(C)=O)C(=O)NC1CCN(C(=O)Nc2ccccc2Cl)CC1 (stereo not drawn) 28.2 µM [activator, single point]
N#Cc1ccccc1OCC(O)CS(=O)(=O)c1ccccc1 (stereo not drawn) 28.2 µM [activator, single point]
COc1ccc(OCC(=O)OCC(=O)NC2CC2)cc1 3.16 µM [activator, partial curve, poor fit]
CCC(CC)C(=O)c1c[nH]c(C(=O)OC)c1 3.98 µM [activator, full curve, poor fit]
O=C(NNC1CC(=O)N(c2ccc(Br)cc2)C1=O)c1cccs1 (stereo not drawn) 5.01 µM [activator, single point]
COCCCNC(=O)CC(=O)N/N=C\c1ccc(SC)cc1 12.6 µM [activator, single point]
Cc1cccc(NC(=O)c2cc3cc([N+](=O)[O-])ccc3s2)n1 11.2 µM [activator, single point]
CCOc1ccc2[nH]c(C(=O)N/N=C/c3cc(OC)c(OC)c(OC)c3)cc2c1 5.01 µM [activator, single point]
O=C(Nc1ccc(S(=O)(=O)Nc2ccnn2-c2ccccc2)cc1)C(F)(F)F 2.82 µM [activator, single point]
COC(=O)C1=C(C)NC(=O)C1(NS(=O)(=O)c1ccc(C)cc1)C(F)(F)F (stereo not drawn) 28.2 µM [activator, single point]
CCn1c(=O)c2cc(C(=O)N(C)c3cc(C)ccc3OC)sc2c2ccccc21 11.2 µM [activator, partial curve]
CCc1ccc(C(=O)Nn2c(C)nc3ccccc3c2=O)cc1 0.447 µM [activator, full curve, poor fit]
Cc1ccc(NC(=S)N2CCCC(c3nc4ccc(C)cc4[nH]3)C2)c(C)c1 (stereo not drawn) 28.2 µM [activator, single point]
CCOC(=O)CSc1ccc(S(=O)(=O)N2CCCC2)cc1[N+](=O)[O-] 11.2 µM [activator, single point]
CCCCCCn1cnc2c(oc3nc4c(cc32)CCCC4)c1=O 5.01 µM [activator, single point]
Cc1c(C(=O)N2CCN(C(c3ccccc3)c3ccccc3)CC2)oc2ccccc12 28.2 µM [activator, single point]
O=C(CCc1nc2ccccc2c(=O)[nH]1)NNC(=O)COc1cccc(F)c1 5.01 µM [activator, single point]
COc1cccc(OC)c1/C=C/C(=O)NC1CCCCC1 3.55 µM [activator, single point]
COCCNC(=O)c1cc(-c2ccc(-c3ccccc3)cc2)nc2ccccc12 2.82 µM [activator, full curve, poor fit]
O=C(c1snnc1-c1ccccc1)N1CCOCC1 22.4 µM [activator, single point]
Cc1ccc2c(CN(C)Cc3cccc(Cl)c3)cc(=O)oc2c1C 1.58 µM [activator, partial curve, poor fit]
O=C(NN1C(=O)c2ccccc2C1=O)c1ccncc1 0.501 µM [activator, full curve, poor fit]
CCc1ccc2[nH]c(O)c(N=NC3=NC(=O)CS3)c2c1 1.78 µM [activator, partial curve, poor fit]
COCCn1c(C)cc(C(=O)COC(=O)c2ccc(Br)o2)c1C 28.2 µM [activator, single point]
COc1cc(C(=O)Oc2cccc(/C=N/NC(=O)c3cc(C)[nH]n3)c2)cc(OC)c1OC 2.82 µM [activator, single point]
O=c1c(C=NCc2ccccc2)c(NCc2ccccc2)nc2ccccn12 3.55 µM [activator, single point]
COc1cccc(-c2cc(C(=O)N3CCCc4ccccc43)no2)c1 2.82 µM [activator, partial curve, poor fit]
CC1(C)CC(=O)C=C(Nc2ccc(F)cc2)C1 10 µM [activator, partial curve]

Already shown: entries from further up.
Potency, inconclusive:
COCCn1c(C)cc(C(=O)COC(=O)c2ccc(Br)o2)c1C 28.2 µM [activator, single point]
COc1cc(C(=O)Oc2cccc(/C=N/NC(=O)c3cc(C)[nH]n3)c2)cc(OC)c1OC 2.82 µM [activator, single point]

Following part.

activation, inactive:
Cc1cc(NC(=O)CCCS(=O)(=O)c2nc(-c3cccs3)cc(C(F)(F)F)n2)no1 -65.4%
CN(C)CCN(C(=O)c1cccs1)c1nc2cc3c(cc2s1)OCCO3 -6.28%
CC(NC(=O)C1CC=CCC1C(=O)O)C1CC2CCC1C2 (stereo not drawn) 2.23%
CCOc1ccc(S(=O)(=O)N2CCCCC2)cc1NC(=O)C1CCC1 -11%
CN(C)CCNc1oc(COc2cccc(Cl)c2)nc1C#N 7.01%
CN1CCN(C(=O)c2cc3sccc3n2CC(=O)c2ccccc2)CC1 -48.6%
Cc1cc(C)n(CCNc2nc3nonc3nc2N2CCCCC2)n1 40.5%
CCN(CC)c1ccc(/C=N/n2c(-c3ccccc3Br)n[nH]c2=S)cc1 -6.51%
CCn1c(SCC(N)=O)nnc1-c1ccc(S(=O)(=O)N2CCN(C)CC2)cc1 17.5%
CNC[C@H](CC1CCCCC1)NC[C@H](CO)NCCc1cccc(C(F)(F)F)c1 -45.4%
CCC(CO)Oc1cc(NCc2ccc(Cl)cc2)c2ncn(C(C)C)c2c1 (stereo not drawn) -3.72%
